Some of the results follow. Residues, ends and D or L forms follow the SMILES beside them. *: point of attachment. Cbz = O=C(OCc1ccccc1)*
What was measured:
Test in all cases: log2 fold change, soluble protein after heating vs DMSO (PISA); higher = thermal stabilisation; K562 cells, 10 uM, 30 min; active = over 0.2 and 3.5 SD of the protein, either way, in both replicates (recomputed)
IRAK-1-4 Inhibitor I = compound: C1COCCN1CCN2C3=CC=CC=C3N=C2NC(=O)C4=CC(=CC=C4)[N+](=O)[O-] [IRAK-1-4 Inhibitor I]
How it was run: (§1)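 Soluble protein was quantified by TMTpro 16plex LC-MS/MS after channel sums were equalised. It was obtained as the supernatant after 21,000xg for 90 min from pooled aliquots of K562 cells (2×10^6 cells/mL, 10 μM compound, 30 min) heated for 3 min across 48°C-58°C and extracted in PBS with 0.5% NP-40 at 4°C. Thermal stability values are relative to control samples and come from duplicates. They are given as log2 fold changes.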

Sequences of proteins named here, by UniProt entry; tags and fusion partners are left off. A change or cut given only in a name is not applied to a line headed by its entry.
UniProt Q9Y657, whole entry, looked up: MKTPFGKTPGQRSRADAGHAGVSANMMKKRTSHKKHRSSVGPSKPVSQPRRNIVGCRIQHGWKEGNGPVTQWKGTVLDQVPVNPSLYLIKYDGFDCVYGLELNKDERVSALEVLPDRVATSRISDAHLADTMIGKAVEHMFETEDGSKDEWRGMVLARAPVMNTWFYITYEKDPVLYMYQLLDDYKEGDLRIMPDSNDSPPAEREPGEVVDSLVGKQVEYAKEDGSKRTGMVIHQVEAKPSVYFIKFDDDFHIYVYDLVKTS
UniProt O15020, whole entry, looked up: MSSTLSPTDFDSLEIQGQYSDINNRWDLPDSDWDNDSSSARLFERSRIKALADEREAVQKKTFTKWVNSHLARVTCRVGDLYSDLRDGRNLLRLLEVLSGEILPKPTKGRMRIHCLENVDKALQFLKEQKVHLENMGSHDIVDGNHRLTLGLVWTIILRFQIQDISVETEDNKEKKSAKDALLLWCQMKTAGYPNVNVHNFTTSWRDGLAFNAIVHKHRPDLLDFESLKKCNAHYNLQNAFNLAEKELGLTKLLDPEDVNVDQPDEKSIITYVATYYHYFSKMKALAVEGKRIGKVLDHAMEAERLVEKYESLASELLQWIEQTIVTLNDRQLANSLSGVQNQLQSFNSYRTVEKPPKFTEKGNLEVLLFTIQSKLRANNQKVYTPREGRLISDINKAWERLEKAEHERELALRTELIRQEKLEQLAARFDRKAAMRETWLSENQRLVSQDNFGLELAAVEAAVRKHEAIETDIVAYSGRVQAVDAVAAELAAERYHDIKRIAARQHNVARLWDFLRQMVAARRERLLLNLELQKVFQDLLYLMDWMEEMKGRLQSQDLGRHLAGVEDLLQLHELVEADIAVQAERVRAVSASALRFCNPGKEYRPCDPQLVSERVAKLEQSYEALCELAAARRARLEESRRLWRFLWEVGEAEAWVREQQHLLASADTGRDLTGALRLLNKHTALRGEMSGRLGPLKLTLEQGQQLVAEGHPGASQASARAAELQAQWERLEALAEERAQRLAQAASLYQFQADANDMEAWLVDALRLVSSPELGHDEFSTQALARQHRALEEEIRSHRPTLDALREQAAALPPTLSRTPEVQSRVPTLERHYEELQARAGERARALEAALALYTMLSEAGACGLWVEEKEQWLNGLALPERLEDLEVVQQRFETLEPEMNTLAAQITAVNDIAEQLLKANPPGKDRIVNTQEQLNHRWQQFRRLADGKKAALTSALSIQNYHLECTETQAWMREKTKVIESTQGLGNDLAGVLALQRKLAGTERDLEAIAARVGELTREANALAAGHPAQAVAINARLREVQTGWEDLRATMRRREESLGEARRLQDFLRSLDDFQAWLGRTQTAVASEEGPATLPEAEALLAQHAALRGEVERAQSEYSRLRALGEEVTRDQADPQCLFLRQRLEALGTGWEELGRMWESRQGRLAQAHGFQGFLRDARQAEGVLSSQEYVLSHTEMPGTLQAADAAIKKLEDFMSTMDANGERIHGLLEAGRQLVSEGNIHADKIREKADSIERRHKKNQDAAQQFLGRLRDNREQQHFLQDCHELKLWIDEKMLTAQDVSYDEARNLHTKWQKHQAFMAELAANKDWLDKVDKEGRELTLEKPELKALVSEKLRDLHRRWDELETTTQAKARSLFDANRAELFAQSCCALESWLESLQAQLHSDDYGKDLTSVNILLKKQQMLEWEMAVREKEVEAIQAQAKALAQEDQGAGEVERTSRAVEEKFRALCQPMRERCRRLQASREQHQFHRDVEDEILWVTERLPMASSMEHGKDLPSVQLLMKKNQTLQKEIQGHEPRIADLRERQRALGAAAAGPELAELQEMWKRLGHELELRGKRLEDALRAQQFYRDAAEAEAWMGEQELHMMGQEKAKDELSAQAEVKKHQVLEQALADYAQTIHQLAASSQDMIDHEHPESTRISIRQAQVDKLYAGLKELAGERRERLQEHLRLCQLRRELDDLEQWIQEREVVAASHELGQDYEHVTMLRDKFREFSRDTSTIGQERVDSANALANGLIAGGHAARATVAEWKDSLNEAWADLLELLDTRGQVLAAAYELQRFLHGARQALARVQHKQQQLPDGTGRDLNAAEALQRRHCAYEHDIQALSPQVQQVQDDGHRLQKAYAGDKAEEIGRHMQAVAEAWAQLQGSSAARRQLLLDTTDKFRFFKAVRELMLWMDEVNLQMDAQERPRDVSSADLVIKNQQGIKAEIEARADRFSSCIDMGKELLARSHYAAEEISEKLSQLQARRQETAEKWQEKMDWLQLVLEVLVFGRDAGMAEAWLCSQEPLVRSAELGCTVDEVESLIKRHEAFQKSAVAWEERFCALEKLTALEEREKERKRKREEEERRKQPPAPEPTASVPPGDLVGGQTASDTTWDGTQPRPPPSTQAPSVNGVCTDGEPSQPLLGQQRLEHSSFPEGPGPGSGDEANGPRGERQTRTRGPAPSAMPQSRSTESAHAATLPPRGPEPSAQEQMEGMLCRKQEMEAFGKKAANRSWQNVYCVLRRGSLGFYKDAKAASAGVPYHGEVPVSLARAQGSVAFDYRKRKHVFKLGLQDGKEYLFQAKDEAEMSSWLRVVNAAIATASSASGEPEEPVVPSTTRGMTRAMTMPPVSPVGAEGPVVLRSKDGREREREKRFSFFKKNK
UniProt P49458: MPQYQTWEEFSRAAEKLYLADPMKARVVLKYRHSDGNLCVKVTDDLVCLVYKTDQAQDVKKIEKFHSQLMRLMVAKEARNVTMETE
UniProt Q9NSC7: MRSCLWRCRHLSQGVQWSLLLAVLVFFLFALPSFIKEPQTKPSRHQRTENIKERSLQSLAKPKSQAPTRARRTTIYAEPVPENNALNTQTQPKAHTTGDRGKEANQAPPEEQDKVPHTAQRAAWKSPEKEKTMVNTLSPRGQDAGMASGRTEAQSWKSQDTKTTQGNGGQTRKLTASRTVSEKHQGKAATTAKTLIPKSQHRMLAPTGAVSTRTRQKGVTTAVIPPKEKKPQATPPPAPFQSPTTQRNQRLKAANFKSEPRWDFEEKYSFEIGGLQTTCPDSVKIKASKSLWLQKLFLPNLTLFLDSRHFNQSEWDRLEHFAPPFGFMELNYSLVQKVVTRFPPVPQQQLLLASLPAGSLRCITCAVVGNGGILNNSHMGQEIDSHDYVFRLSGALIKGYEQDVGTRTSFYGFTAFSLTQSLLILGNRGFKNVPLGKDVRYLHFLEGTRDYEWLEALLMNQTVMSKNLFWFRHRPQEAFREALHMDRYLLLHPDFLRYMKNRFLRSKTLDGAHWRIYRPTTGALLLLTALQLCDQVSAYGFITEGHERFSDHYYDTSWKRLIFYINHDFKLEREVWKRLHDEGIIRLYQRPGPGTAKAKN
UniProt P61011: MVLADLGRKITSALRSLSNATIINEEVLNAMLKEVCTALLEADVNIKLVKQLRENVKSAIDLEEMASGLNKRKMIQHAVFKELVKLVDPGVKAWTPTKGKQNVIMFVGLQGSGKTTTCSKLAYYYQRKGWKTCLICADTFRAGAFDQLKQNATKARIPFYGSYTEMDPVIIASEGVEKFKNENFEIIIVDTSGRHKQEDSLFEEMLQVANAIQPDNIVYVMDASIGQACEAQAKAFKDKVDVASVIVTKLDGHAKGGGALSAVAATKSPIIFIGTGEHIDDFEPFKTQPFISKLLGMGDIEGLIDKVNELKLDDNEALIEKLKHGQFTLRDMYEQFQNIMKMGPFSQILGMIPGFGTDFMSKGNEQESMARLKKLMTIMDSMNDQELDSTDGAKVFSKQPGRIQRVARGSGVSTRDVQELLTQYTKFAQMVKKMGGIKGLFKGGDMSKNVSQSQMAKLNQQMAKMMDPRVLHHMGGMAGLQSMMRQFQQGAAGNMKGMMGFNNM
UniProt Q9H2V7: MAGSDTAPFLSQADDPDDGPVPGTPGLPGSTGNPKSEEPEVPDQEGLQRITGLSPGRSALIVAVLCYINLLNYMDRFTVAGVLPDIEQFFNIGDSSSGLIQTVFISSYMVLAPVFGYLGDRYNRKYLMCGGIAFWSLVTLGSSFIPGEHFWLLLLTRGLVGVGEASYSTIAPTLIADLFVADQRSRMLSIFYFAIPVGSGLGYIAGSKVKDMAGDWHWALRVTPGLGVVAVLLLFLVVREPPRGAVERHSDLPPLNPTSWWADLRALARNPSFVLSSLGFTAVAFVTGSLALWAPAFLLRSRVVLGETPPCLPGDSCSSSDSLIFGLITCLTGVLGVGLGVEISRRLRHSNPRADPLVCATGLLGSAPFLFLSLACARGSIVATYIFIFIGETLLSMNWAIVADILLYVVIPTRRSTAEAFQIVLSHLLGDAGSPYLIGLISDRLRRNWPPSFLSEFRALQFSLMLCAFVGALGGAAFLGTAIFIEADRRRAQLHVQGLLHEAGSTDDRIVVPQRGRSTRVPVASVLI
UniProt P37108: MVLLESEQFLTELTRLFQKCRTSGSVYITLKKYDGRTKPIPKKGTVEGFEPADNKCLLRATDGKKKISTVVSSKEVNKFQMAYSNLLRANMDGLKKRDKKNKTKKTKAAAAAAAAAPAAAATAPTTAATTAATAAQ
UniProt Q9BXP5: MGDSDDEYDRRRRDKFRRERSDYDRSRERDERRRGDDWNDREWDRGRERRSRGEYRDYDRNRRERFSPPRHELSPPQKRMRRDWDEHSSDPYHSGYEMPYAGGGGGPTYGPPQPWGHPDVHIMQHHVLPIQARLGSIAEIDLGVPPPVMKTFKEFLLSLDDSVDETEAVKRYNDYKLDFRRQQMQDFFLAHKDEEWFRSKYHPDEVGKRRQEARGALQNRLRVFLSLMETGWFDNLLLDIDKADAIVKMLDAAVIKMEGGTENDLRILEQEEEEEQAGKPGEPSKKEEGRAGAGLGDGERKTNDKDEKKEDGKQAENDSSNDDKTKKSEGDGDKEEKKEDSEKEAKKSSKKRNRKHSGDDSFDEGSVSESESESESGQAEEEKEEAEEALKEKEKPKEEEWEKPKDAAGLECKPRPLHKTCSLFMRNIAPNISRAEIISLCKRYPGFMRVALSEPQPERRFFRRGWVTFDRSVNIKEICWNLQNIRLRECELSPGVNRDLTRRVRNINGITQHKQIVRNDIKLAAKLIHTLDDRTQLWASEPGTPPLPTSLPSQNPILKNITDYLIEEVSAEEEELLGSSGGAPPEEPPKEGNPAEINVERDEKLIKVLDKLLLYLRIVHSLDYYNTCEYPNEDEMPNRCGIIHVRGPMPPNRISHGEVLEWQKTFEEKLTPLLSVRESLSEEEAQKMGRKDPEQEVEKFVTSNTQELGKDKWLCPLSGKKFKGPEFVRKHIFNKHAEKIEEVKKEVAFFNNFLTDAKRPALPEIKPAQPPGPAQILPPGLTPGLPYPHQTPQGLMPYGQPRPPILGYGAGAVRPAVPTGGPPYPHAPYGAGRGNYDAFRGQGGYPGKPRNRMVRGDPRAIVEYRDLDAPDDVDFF
UniProt P10124: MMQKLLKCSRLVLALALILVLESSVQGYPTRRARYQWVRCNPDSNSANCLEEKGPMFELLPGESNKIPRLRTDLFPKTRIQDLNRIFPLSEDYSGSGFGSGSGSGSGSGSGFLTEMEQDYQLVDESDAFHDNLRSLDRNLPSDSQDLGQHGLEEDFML
UniProt Q8NBT2: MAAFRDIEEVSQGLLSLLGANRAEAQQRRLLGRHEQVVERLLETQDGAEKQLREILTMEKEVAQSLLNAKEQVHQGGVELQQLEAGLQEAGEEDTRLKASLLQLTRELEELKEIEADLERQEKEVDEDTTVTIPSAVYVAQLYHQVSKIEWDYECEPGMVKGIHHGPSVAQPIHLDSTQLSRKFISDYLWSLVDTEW
UniProt Q8WW59: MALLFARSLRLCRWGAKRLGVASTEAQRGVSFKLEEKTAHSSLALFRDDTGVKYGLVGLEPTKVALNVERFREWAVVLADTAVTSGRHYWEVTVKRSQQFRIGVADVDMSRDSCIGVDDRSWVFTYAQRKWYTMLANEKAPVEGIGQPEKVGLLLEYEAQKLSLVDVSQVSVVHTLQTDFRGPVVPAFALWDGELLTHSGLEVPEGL
UniProt P50502: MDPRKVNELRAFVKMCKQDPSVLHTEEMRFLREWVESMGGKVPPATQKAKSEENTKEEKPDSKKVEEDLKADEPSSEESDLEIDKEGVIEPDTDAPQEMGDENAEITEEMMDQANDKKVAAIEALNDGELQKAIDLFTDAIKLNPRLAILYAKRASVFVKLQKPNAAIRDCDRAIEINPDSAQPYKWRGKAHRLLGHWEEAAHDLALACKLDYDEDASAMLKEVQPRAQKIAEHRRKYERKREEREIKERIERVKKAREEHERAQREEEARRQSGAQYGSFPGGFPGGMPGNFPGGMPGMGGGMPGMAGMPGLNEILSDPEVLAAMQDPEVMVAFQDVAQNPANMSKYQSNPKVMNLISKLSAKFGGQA
UniProt Q13243: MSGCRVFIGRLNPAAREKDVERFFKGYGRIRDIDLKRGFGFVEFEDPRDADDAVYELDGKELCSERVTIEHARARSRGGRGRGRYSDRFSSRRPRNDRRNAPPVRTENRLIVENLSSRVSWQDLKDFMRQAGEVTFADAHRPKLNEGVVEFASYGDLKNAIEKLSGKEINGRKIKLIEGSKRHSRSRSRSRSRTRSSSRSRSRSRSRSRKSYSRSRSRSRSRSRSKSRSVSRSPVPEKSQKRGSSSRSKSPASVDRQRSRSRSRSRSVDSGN

ibrutinib = compound: C=CC(=O)N1CCC[C@@H](n2nc(-c3ccc(Oc4ccccc4)cc3)c3c(N)ncnc32)C1 [ibrutinib]
How it was run: as §1

[1] = compound: CC(=O)c1cnc2ccc(-c3cc(Cl)c(O)c(Cl)c3)nc2c1N[C@H]1CC[C@H](CN(C)C)CC1
How it was run: as §1

ralimetinib = compound: CC(C)(C)Cn1c(N)nc2ccc(-c3[nH]c(C(C)(C)C)nc3-c3ccc(F)cc3)nc21 [ralimetinib]
How it was run: as §1

[2] = compound: CC(C)(O)CC(=O)NCCn1ccc2ncnc(Nc3ccc(Oc4cccc(C(F)(F)F)c4)c(Cl)c3)c21
How it was run: as §1

[3] = compound: CC(C)C1=C2N=C(C=C(N2N=C1)NCC3=CC=CC=C3)NCCCCCCN
How it was run: as §1

[4] = compound: CC(C)C[C@@H](C=O)NC(=O)[C@H](CC(C)C)NC(=O)[C@H](CC(C)C)NC(=O)OCc1ccccc1
How it was run: as §1

pinometostat = compound: CC(C)N(C[C@H]1O[C@@H](n2cnc3c(N)ncnc32)[C@H](O)[C@@H]1O)[C@H]1C[C@@H](CCc2nc3cc(C(C)(C)C)ccc3[nH]2)C1 [pinometostat]
How it was run: as §1

[5] = compound: CC1=C(C(CC(=O)N1)C2=CC=C(C=C2)C(F)(F)F)C(=O)NC3=C(C=C4C(=C3)C=NN4)F
How it was run: as §1

[6] = compound: CC1=C(C2=C(C=C1)C(=O)C3=CC=CC=C3N2CCCN)C
How it was run: as §1

Measured: log2 fold change

SPIN1 (UniProt Q9Y657)
inactive: IRAK-1-4 Inhibitor I -0.025 | ibrutinib 0.046 | [1] -0.066 | ralimetinib -0.043 | [2] -0.074 | [3] 0.102 | [4] 0.215 | pinometostat 0.059 | [5] -0.024 | [6] 0.083

SPCS1, A0A5F9YFS9
inactive: IRAK-1-4 Inhibitor I 0.049 | ibrutinib 0.008 | [1] -0.016 | ralimetinib -0.048 | [2] 0.32 | [3] -0.071 | [4] 0.014 | pinometostat 0.008 | [5] -0.007 | [6] 0.086

SQLE (UniProt Q14534)
inactive: IRAK-1-4 Inhibitor I 0.012 | ibrutinib 0.043 | [1] -0.076 | ralimetinib 0.002 | [2] -0.037 | [3] 0.001 | [4] 0.105 | pinometostat 0.046 | [5] -0.068 | [6] -0.035

SPTBN2 (UniProt O15020)
inactive: IRAK-1-4 Inhibitor I -0.052 | ibrutinib 0 | [1] -0.032 | ralimetinib 0.231 | [2] 0.046 | [3] -0.06 | [4] 0.07 | pinometostat 0.043 | [5] -0.069 | [6] -0.005

STAT1 (UniProt P42224)
inactive: IRAK-1-4 Inhibitor I -0.068 | ibrutinib -0.01 | [1] 0.101 | ralimetinib 0.146 | [2] 0.032 | [3] -0.197 | [4] 0.122 | pinometostat 0.397 | [5] 0.149 | [6] -0.06

SRP9 (UniProt P49458)
inactive: IRAK-1-4 Inhibitor I -0.171 | ibrutinib -0.028 | [1] 0.084 | ralimetinib 0.125 | [2] 0.07 | [3] 0.057 | [4] 0.152 | pinometostat 0.31 | [5] 0.106 | [6] -0.356

ST6GALNAC1 (UniProt Q9NSC7)
inactive: IRAK-1-4 Inhibitor I -0.112 | ibrutinib 0.031 | [1] 0.039 | ralimetinib -0.076 | [2] 0.013 | [3] -0.044 | [4] 0.067 | pinometostat 0.077 | [5] 0.022 | [6] -0.057

Reprinted at random: 2 records from the list.
ST6GALNAC1 (UniProt Q9NSC7)
inactive: IRAK-1-4 Inhibitor I -0.112 | ibrutinib 0.031 | [1] 0.039 | ralimetinib -0.076 | [2] 0.013 | [3] -0.044 | [4] 0.067 | pinometostat 0.077 | [5] 0.022 | [6] -0.057

SQLE (UniProt Q14534)
inactive: IRAK-1-4 Inhibitor I 0.012 | ibrutinib 0.043 | [1] -0.076 | ralimetinib 0.002 | [2] -0.037 | [3] 0.001 | [4] 0.105 | pinometostat 0.046 | [5] -0.068 | [6] -0.035

Following part

SRGAP2 (UniProt O75044)
inactive: IRAK-1-4 Inhibitor I 0.005 | ibrutinib -0.004 | [1] -0.068 | ralimetinib 0.121 | [2] 0.055 | [3] -0.022 | [4] 0.027 | pinometostat 0.003 | [5] -0.028 | [6] 0.037

ST7 (UniProt Q9NRC1)
inactive: IRAK-1-4 Inhibitor I -0.009 | ibrutinib -0.036 | [1] -0.018 | ralimetinib 0.077 | [2] -0.053 | [3] 0.044 | [4] 0.047 | pinometostat 0.027 | [5] 0.004 | [6] 0.098

SRM (UniProt P19623)
inactive: IRAK-1-4 Inhibitor I 0.063 | ibrutinib 0.023 | [1] -0.005 | ralimetinib -0.033 | [2] -0.003 | [3] -0.136 | [4] -0.001 | pinometostat -0.019 | [5] -0.037 | [6] 0.048

SPN (UniProt P16150)
inactive: IRAK-1-4 Inhibitor I 0.113 | ibrutinib 0.033 | [1] 0.027 | ralimetinib -0.033 | [2] 0.047 | [3] 0.192 | [4] 0 | pinometostat 0.032 | [5] 0.005 | [6] 0.012

SPRY4 (UniProt Q9C004)
inactive: IRAK-1-4 Inhibitor I 0.036 | ibrutinib -0.051 | [1] -0.007 | ralimetinib -0.051 | [2] 0.011 | [3] 0.02 | [4] 0.056 | pinometostat -0.015 | [5] 0.043 | [6] -0.02

STK24 (UniProt Q9Y6E0)
inactive: IRAK-1-4 Inhibitor I 0.053 | ibrutinib -0.065 | [1] -0.102 | ralimetinib -0.089 | [2] -0.044 | [3] -0.023 | [4] -0.023 | pinometostat -0.008 | [5] -0.003 | [6] 0.024

SRRM1 (UniProt Q8IYB3)
inactive: IRAK-1-4 Inhibitor I -0.152 | ibrutinib 0.054 | [1] -0.297 | ralimetinib 0.107 | [2] 0.069 | [3] -0.121 | [4] 0.09 | pinometostat 0.151 | [5] 0.068 | [6] 0.066

SRP54 (UniProt P61011)
inactive: IRAK-1-4 Inhibitor I 0.005 | ibrutinib -0.003 | [1] -0.035 | ralimetinib 0.009 | [2] -0.064 | [3] -0.095 | [4] 0.05 | pinometostat 0.012 | [5] -0.013 | [6] 0.061

SPG7 (UniProt Q9UQ90)
inactive: IRAK-1-4 Inhibitor I -0.002 | ibrutinib 0.015 | [1] -0.032 | ralimetinib -0.013 | [2] 0.002 | [3] -0.054 | [4] -0.005 | pinometostat -0.007 | [5] 0.075 | [6] 0.031

STAM (UniProt Q92783)
inactive: IRAK-1-4 Inhibitor I -0.017 | ibrutinib -0.082 | [1] 0.064 | ralimetinib 0.129 | [2] 0.042 | [3] -0.042 | [4] -0.066 | pinometostat -0.054 | [5] -0.017 | [6] -0.051

SRSF9 (UniProt Q13242)
inactive: IRAK-1-4 Inhibitor I -0.094 | ibrutinib 0.106 | [1] -0.13 | ralimetinib 0.199 | [2] 0.219 | [3] 0.019 | [4] 0.171 | pinometostat 0.29

SPNS1 (UniProt Q9H2V7)
inactive: IRAK-1-4 Inhibitor I 0.017 | ibrutinib 0.011 | [1] -0.033 | ralimetinib -0.051 | [2] -0.127 | [3] -0.233 | [4] 0.091 | pinometostat -0.041 | [5] 0.037 | [6] 0.011

SRP14 (UniProt P37108)
inactive: IRAK-1-4 Inhibitor I -0.128 | ibrutinib 0.048 | [1] 0.039 | ralimetinib 0.188 | [2] 0.057 | [3] 0.016 | [4] 0.156 | pinometostat 0.348 | [5] 0.064 | [6] -0.341

SRRT (UniProt Q9BXP5)
inactive: IRAK-1-4 Inhibitor I -0.135 | ibrutinib -0.042 | [1] -0.195 | ralimetinib 0.017 | [2] -0.269 | [3] -0.375 | [4] -0.049 | pinometostat -0.011 | [5] 0 | [6] 0.148

STAG2 (UniProt Q8N3U4)
inactive: IRAK-1-4 Inhibitor I -0.021 | ibrutinib -0.018 | [1] -0.156 | ralimetinib -0.021 | [2] -0.018 | [3] 0.003 | [4] -0.029 | pinometostat 0 | [5] -0.022 | [6] -0.1

SRGN (UniProt P10124)
inactive: IRAK-1-4 Inhibitor I 0.001 | ibrutinib 0.047 | [1] -0.028 | ralimetinib 0.16 | [2] 0.249 | [3] 0.229 | [4] -0.026 | pinometostat -0.007 | [5] -0.015 | [6] -0.493

SPC24 (UniProt Q8NBT2)
inactive: IRAK-1-4 Inhibitor I -0.031 | ibrutinib -0.031 | [1] 0.096 | ralimetinib 0.099 | [2] -0.088 | [3] -0.152 | [4] -0.082 | pinometostat -0.028 | [5] -0.015 | [6] -0.061

SRA1 (UniProt Q9HD15)
inactive: IRAK-1-4 Inhibitor I 0.016 | ibrutinib -0.011 | [1] -0.067 | ralimetinib 0.004 | [2] -0.039 | [3] 0.039 | [4] 0.014 | pinometostat -0.031 | [5] 0.005 | [6] 0.034

SPRYD4 (UniProt Q8WW59)
inactive: IRAK-1-4 Inhibitor I 0.028 | ibrutinib 0.024 | [1] 0.014 | ralimetinib -0.058 | [2] 0.028 | [3] -0.011 | [4] -0.035 | pinometostat -0.042 | [5] -0.059 | [6] 0.033

SRPK1 (UniProt Q96SB4)
inactive: IRAK-1-4 Inhibitor I -0.118 | ibrutinib -0.005 | [1] 0.387 | ralimetinib 0.127 | [2] 0.041 | [3] 0.053 | [4] 0.105 | pinometostat 0.372 | [5] 0.036 | [6] -0.331

ST13 (UniProt P50502)
inactive: IRAK-1-4 Inhibitor I 0.017 | ibrutinib -0.029 | [1] 0.005 | ralimetinib -0.005 | [2] -0.038 | [3] -0.068 | [4] -0.013 | pinometostat -0.021 | [5] 0 | [6] -0.002

SRSF5 (UniProt Q13243)
inactive: IRAK-1-4 Inhibitor I -0.171 | ibrutinib 0.039 | [1] -0.013 | ralimetinib 0.112 | [2] 0.091 | [3] -0.024 | [4] 0.122 | pinometostat 0.289 | [5] 0.032 | [6] -0.457

SRSF1 (UniProt Q07955)
inactive: IRAK-1-4 Inhibitor I -0.284 | ibrutinib 0.055 | [1] -0.064 | ralimetinib 0.022 | [2] 0.144 | [3] 0.025 | [4] 0.067 | pinometostat -0.003 | [5] 0.036 | [6] -0.368

From the supplement of paper PMC10849652
